Source: article doi:10.1101/256560
These are yes or no findings as the source states them, for the method shown. A result given as binding can be weak or reduced; the word gives no strength.

Chains of the proteins cited; added tags and fusions are not shown.
UniProt Q2FYI5, whole entry: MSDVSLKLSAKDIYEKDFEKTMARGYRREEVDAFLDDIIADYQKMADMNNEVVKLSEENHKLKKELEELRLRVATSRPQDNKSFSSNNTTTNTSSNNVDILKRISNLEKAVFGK

What was measured:
Experiment in all cases: two-hybrid
GpsB (S. aureus) = GpsB (S. aureus) (UniProt Q2FYI5)
EzrA^Spn (S. pneumoniae) = target: T1, EzrA^Spn (S. pneumoniae) (UniProt Q8DQE5)
T1 sequence: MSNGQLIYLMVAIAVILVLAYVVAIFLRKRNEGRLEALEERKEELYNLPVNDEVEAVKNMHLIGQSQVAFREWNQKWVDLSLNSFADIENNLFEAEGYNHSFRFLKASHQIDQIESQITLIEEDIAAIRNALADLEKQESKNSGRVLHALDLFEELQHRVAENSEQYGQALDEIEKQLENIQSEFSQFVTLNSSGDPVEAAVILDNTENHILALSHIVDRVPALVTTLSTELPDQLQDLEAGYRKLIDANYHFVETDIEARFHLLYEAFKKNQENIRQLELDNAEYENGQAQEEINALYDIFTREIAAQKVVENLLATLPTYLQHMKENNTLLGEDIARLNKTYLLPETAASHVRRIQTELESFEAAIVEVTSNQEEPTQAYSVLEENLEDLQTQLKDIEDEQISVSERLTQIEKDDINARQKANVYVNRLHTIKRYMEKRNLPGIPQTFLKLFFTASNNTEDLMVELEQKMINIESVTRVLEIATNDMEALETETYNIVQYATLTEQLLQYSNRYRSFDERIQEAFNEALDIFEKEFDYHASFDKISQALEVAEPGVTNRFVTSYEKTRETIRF

EzrA (S. aureus) = target: T2, EzrA (S. aureus) (UniProt Q2FXK8)
T2 sequence: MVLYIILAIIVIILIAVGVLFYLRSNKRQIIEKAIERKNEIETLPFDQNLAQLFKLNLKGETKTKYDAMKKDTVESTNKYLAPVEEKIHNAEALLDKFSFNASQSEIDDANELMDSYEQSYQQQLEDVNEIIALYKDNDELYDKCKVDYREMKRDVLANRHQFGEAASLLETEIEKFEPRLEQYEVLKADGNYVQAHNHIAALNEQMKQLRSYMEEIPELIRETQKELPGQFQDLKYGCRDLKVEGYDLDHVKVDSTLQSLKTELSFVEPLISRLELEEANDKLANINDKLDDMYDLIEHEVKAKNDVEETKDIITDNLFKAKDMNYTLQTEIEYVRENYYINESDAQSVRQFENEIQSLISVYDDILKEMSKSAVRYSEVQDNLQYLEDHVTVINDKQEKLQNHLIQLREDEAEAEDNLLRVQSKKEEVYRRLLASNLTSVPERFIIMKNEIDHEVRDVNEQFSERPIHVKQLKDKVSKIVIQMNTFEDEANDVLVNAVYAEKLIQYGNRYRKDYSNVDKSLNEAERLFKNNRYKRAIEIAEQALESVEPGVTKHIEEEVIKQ

CozEb (S. aureus SH1000) = CozEb (S. aureus SH1000) (UniProt Q2G2N2)

In the case of CozEb (from UniProt Q2G2N2), the binding (GpsB (S. aureus)) is reported as “no binding”, the binding (EzrA^Spn (S. pneumoniae)) is reported as “binds” and the binding (EzrA (S. aureus)) is reported as “binds”.
For CozEa (from UniProt Q2FZQ2), the binding (GpsB (S. aureus)) was “binds”, the binding (CozEb (S. aureus SH1000)) was “binds” and the binding (EzrA^Spn (S. pneumoniae)) was “binds”. For the same substance, the binding (EzrA (S. aureus)) was “binds”.
